Measurements from paper PMC3926846.
These are yes or no findings as the source states them, for the method shown. Binding seen in cells or lysates may run through a third protein. Some binding calls cover weakened binding; strength is not graded here.

By UniProt entry, the sequences of proteins in these tests, tags left out.
UniProt Q15075: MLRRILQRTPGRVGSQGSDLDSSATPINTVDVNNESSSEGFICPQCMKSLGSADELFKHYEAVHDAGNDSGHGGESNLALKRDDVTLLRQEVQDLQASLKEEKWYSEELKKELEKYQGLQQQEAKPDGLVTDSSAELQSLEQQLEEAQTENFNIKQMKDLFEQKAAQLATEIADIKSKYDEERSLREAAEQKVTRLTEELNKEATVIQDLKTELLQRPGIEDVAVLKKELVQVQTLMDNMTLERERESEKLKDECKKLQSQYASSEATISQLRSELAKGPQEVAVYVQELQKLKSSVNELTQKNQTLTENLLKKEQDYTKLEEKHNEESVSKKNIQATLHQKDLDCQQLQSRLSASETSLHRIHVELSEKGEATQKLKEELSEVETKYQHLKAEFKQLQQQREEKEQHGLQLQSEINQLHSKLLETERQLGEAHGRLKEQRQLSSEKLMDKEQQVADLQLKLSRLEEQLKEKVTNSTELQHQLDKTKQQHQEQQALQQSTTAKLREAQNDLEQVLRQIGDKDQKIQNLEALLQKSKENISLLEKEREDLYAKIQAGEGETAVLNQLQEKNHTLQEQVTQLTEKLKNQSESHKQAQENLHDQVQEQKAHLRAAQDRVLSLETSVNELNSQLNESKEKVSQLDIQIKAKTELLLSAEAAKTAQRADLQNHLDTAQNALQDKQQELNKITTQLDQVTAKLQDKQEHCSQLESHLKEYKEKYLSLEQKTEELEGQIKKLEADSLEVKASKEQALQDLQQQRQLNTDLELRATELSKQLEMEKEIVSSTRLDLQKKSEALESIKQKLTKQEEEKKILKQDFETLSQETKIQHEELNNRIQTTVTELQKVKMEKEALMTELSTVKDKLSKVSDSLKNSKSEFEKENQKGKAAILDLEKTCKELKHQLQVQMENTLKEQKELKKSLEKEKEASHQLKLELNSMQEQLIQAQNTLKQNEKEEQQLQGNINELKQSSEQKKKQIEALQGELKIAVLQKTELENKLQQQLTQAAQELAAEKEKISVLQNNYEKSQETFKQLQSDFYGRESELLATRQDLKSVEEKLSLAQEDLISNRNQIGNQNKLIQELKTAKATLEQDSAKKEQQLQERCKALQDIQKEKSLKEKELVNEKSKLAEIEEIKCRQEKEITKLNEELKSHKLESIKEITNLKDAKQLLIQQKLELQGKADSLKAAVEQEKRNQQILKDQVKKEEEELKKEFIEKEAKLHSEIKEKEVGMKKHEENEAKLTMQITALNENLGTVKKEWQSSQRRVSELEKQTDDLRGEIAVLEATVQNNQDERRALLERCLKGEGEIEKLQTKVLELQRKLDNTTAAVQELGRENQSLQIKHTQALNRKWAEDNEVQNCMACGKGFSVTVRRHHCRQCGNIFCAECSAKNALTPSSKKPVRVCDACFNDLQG
UniProt Q03135: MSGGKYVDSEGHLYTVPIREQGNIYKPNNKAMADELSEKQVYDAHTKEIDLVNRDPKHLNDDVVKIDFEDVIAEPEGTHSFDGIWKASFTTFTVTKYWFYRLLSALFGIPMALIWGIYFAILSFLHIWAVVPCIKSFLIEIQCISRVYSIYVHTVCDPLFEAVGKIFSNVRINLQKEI

Columns and labels:
[1] = molecular target: GST-p53 fragment #1 (93-142 AA) (human) (UniProt P04637); assay: pull-down; agarose bead-conjugated GST-p53 (93-292 AA) and GST-p53 fragments (#1-4) incubated with A549 cell lysates; bound proteins blotted; only the target purified
EEA1 = EEA1 (UniProt Q15075); assay: co-IP; immunoprecipitation (IP) analysis of caveolin-1 and EEA1, without and with RP53 (Figure S3D); cells not shown

binding [1]: binds
binding (EEA1): binds
Substance: caveolin-1 (from UniProt Q03135 1-178)
